Measured values from PubChem BioAssay AID504467 (National Center for Advancing Translational Sciences (NCATS), 2011).
In all, about 330,000 compounds went through this assay and about 7,700 (2.3%) were called active. The shares of active, inactive and inconclusive entries below differ from those in the screen. Calls come from the whole dose curve; as a rule, active = well fitted inhibition curve with a large enough effect; inconclusive = small, poorly fitted or top-dose-only effect, or effect the other way; inactive = flat fitted curve, though single readings scatter. Potencies beside an inconclusive call are fits to weak or partial responses and may not hold up.

Assay: qHTS screen for small molecules that inhibit ELG1-dependent DNA repair in human embryonic kidney (HEK293T) cells expressing luciferase-tagged ELG1; note: nearly all actives have a fitted effect of over 55% in size
Details: HEK293T ELG1-luciferase reporter, luminescence, 16 h, DNA damage induced by 5-fluorouridine; series mostly up to 46.1 µM
Outline: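 HEK293T cells expressing luciferase-tagged ELG1 (2,000/well) received 5-Fluorouridine plus compound or DMSO for 16 hr at 37 °C. Luciferase was read by ONE-Glo luminescence after 30 min at room temperature.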
Potency is the fitted concentration of half-maximal effect.

Question: With `CCN(CC1CCCO1)C(=O)c1cc(COc2ccc(OC)cc2Cl)on1` (stereo unspecified) as the compound, how does the Potency read?
Answer: Its Potency is inconclusive: 18.3 µM [activator, partial curve, poor fit].

Question: For `Cc1ccc(S(=O)(=O)CCC(=O)OC2CC(C)OC2=O)cc1` (stereo unspecified), which Potency is on record?
Answer: Its Potency is “inactive”.

Question: For `Cc1ccc(C)c(CSC2=NN3CCCC(=O)N=C3S2)c1`, which Potency is on record?
Answer: The Potency was “inactive”.

Question: For `COc1cc(OC)c(N(C)S(=O)(=O)c2cccc(C(=O)Nc3nccs3)c2)cc1Cl`, which Potency is on record?
Answer: Its Potency is active: 23.1 µM.

Question: For `COc1ccc(OCCSc2nnc(CCNC(=O)c3ccc(OC)cc3)n2C)cc1`, which Potency is on record?
Answer: The Potency was “inactive”.

Question: With `c1csc(-c2nc(CN3CCSCC3)cs2)c1` as the compound, how does the Potency read?
Answer: Its Potency is inconclusive: 2.31 µM [activator, full curve].

Question: For `CCN(CC)c1ccc(/C=C/c2nc3ccccc3s2)cc1`, which Potency is on record?
Answer: The Potency was inconclusive: 1.16 µM [activator, partial curve].

Question: For `CCCCCC1(C)NC(=S)N(c2ccccc2)N1` (stereo unspecified), which Potency is on record?
Answer: Its Potency is active: 7.3 µM.

Question: For `O=C(CCc1nnc(C2(c3ccc(Cl)cc3)CCC2)o1)N1CCCC1`, which Potency is on record?
Answer: Its Potency is inconclusive: 20.6 µM [activator, partial curve].

Question: With `O=C(Nc1ccc(Br)cc1Cl)c1cnccn1` as the compound, how does the Potency read?
Answer: The Potency was inconclusive: 25.9 µM [activator, single point].

Question: With `COc1cccc(C(=O)N(Cc2ccc3c(c2)OCO3)Cc2nc3ccccc3c(=O)[nH]2)c1` as the compound, how does the Potency read?
Answer: Its Potency is inconclusive: 29.1 µM [inhibitor, single point].

Question: With `COC(=O)C1=C(C)NC(=O)/C1=C\c1cc(C)n(-c2ccc(F)cc2)c1C` as the compound, how does the Potency read?
Answer: Its Potency is “inactive”.

Question: With `CN(Cc1ccccc1)C(=O)c1ccc2c(c1)OCO2` as the compound, how does the Potency read?
Answer: Its Potency is inconclusive: 16.4 µM [activator, partial curve, poor fit].

Question: For `O=C(/C=C/c1cccs1)NC(=S)NNC(=O)Cc1cccs1`, which Potency is on record?
Answer: Its Potency is “inactive”.

Question: For `COC(=O)c1[nH]c2cc(OC)ccc2c1NC(=O)CCN1CCN(Cc2ccc3c(c2)OCO3)CC1`, which Potency is on record?
Answer: The Potency was inconclusive: 23.1 µM [inhibitor, partial curve].

Question: With `CCCC(C(=O)NC(C)(C)C)N(CC1CCCO1)C(=O)CNS(=O)(=O)c1ccc(F)cc1` (stereo unspecified) as the compound, how does the Potency read?
Answer: The Potency was “inactive”.

Question: With `Cc1ccc(-c2cc(C(=O)OCC(=O)NC3CC3)c3ccccc3n2)cc1` as the compound, how does the Potency read?
Answer: The Potency was “inactive”.

Question: Which Potency does the source give for `COc1ccc(NC(=O)Cc2c(C)n(C(=O)c3ccc(Cl)cc3)c3ccc(OC)cc23)cc1` here?
Answer: Its Potency is active: 2.59 µM.

Question: Which Potency does the source give for `Cn1c(SCc2ccc(Br)cc2)nc2ccccc2c1=O` here?
Answer: The Potency was “inactive”.

Question: Which Potency does the source give for `CC(=O)c1cccc(NC(=O)c2cccc(S(=O)(=O)N3CCOCC3)c2)c1` here?
Answer: The Potency was inconclusive: 6.51 µM [inhibitor, single point].

Question: Which Potency does the source give for `CN(CC(=O)Nc1ccc(Cl)cc1)C(=O)Cn1[nH]c(=O)c2ccccc2c1=O` here?
Answer: The Potency was “inactive”.

Question: For `CSc1cccc(NC(=O)C2CCCN2S(=O)(=O)c2ccc3c(c2)CCC(=O)N3)c1` (stereo unspecified), which Potency is on record?
Answer: Its Potency is inconclusive: 29.1 µM [activator, partial curve, poor fit].

Question: With `CCc1nc(N2CCN(C(=S)NCCCOC)CC2)c2c3c(sc2n1)CCCC3` as the compound, how does the Potency read?
Answer: Its Potency is inconclusive: 16.4 µM [inhibitor, partial curve].

Question: For `Cc1cnc(C(=O)Nc2ccc(-n3cnnn3)cc2)cn1`, which Potency is on record?
Answer: Its Potency is inconclusive: 16.4 µM [activator, single point].

Question: With `CCCCOC(=O)c1ccc(NC(=O)C(=O)NCc2ccco2)cc1` as the compound, how does the Potency read?
Answer: Its Potency is “inactive”.

Question: Which Potency does the source give for `CC(C)Cn1c(N)c(C(=O)COC(=O)c2ccc(O)cc2)c(=O)n(C)c1=O` here?
Answer: The Potency was inconclusive: 14.6 µM [inhibitor, partial curve].

Question: With `CC1CN(c2oc(Cc3cccc4ccccc34)nc2C#N)CC(C)O1` (stereo unspecified) as the compound, how does the Potency read?
Answer: Its Potency is inconclusive: 23.1 µM [inhibitor, partial curve, poor fit].

Question: For `CCc1nnc(NC(=O)C2CCCN2C(=O)Nc2ccccc2)s1` (stereo unspecified), which Potency is on record?
Answer: Its Potency is inconclusive: 16.4 µM [activator, partial curve, poor fit].

Question: Which Potency does the source give for `CCOC(=O)C1CCCc2c1[nH]c1ccc(Cl)cc21` (stereo unspecified) here?
Answer: The Potency was inconclusive: 29.1 µM [activator, partial curve, poor fit].

Question: Which Potency does the source give for `CC(C)CCNC(=O)CCn1c(=S)oc2ccccc21` here?
Answer: Its Potency is “inactive”.

Question: Which Potency does the source give for `Cc1cccc(NS(=O)(=O)c2ccc(-n3cccn3)cc2)c1C` here?
Answer: The Potency was “inactive”.

Question: With `CC(C)CCn1c(=O)c2ccccc2c2ccccc2c1=O` as the compound, how does the Potency read?
Answer: Its Potency is “inactive”.

Question: Which Potency does the source give for `Cc1ccc(OCCNC(=O)c2ccc3ccccc3n2)cc1` here?
Answer: Its Potency is inconclusive: 16.4 µM [activator, single point].

Question: With `O=C(CN1CCSCC1)N/N=C/c1ccc(F)c(F)c1` as the compound, how does the Potency read?
Answer: The Potency was inconclusive: 5.17 µM [inhibitor, partial curve, poor fit].

Question: For `Cc1ccc(C#N)c(SCc2ccccc2F)n1`, which Potency is on record?
Answer: The Potency was inconclusive: 16.4 µM [activator, single point].

Question: With `CCOc1ccc(NC(=O)C2CCCN(S(=O)(=O)c3c(C)nn(C)c3C)C2)cc1` (stereo unspecified) as the compound, how does the Potency read?
Answer: The Potency was inconclusive: 16.4 µM [inhibitor, single point].

Question: Which Potency does the source give for `Cc1ccc(S(=O)(=O)N(C(=O)c2ccncc2)c2ccc(OC(=O)c3ccncc3)c3ccccc23)c(C)c1` here?
Answer: The Potency was inconclusive: 14.6 µM [inhibitor, partial curve].

Question: With `Cc1cccc(N2CCN(C(=O)c3cccc(S(=O)(=O)N4CCCCC4)c3)CC2)c1C` as the compound, how does the Potency read?
Answer: The Potency was active: 13 µM.

Question: For `COc1cc(/C=C2\SC(=S)N(CC(=O)NC(C)(C)C)C2=O)cc(OC)c1OC`, which Potency is on record?
Answer: The Potency was inconclusive: 25.9 µM [inhibitor, single point].

Question: For `COc1cc2c(cc1OC)C(NC(=O)c1ccc(C)cc1)CC2=O` (stereo unspecified), which Potency is on record?
Answer: The Potency was inconclusive: 20.6 µM [inhibitor, partial curve, poor fit].

Question: With `COc1ccc(C(NC(=O)/C=C/c2ccco2)c2ccc(OC)c(OC)c2)cc1` (stereo unspecified) as the compound, how does the Potency read?
Answer: The Potency was “inactive”.

Question: With `Cc1c(C)c2ccc(OCC(=O)N3CCN(c4ccccc4)CC3)cc2oc1=O` as the compound, how does the Potency read?
Answer: The Potency was “inactive”.

Question: Which Potency does the source give for `COc1ccc(NC(=O)C2CCN(c3nc(C)nc4c3CCC4)CC2)cc1` here?
Answer: Its Potency is active: 0.731 µM.

Question: With `CN(C)S(=O)(=O)c1ccc(C(=O)Nc2ccnn2C2CCCCC2)cc1` as the compound, how does the Potency read?
Answer: Its Potency is active: 25.9 µM.

Question: With `CCN(CC)S(=O)(=O)c1cccc(-c2cn3cccnc3n2)c1` as the compound, how does the Potency read?
Answer: The Potency was inconclusive: 14.6 µM [inhibitor, partial curve, poor fit].

Question: For `CCOCCn1ccc2c(OCC(=O)Nc3ccc(OC)cc3OC)cccc2c1=O`, which Potency is on record?
Answer: Its Potency is inconclusive: 14.1 µM [inhibitor, partial curve, poor fit].
